{"source": "the supplement of paper PMC3334620", "note": "Over roughly 33,000 sequences, “E-score (-0.5 to 0.5)” has its median near -8e-05; the highest 2% begin near 0.23. This is one part of the list."}
{"biological_target": "T1, Nrg2 (UniProt P38082)", "T1 sequence": "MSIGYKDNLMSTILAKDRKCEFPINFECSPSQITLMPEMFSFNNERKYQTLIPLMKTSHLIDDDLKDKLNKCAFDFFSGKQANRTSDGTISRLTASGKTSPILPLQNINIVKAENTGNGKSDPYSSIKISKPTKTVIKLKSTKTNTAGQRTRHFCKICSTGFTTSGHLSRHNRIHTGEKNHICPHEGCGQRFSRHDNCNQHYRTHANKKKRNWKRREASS", "assay": "PBM E-score (8-mer binding enrichment) (E-score (-0.5 to 0.5)); higher = stronger / more preferred TF binding", "conditions": "protein concentration: 100 nM; construct: GST-full length", "protocol": "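Universal 'all 10-mer' protein binding microarrays (Agilent AMADID 015681) probed with GST-tagged S. cerevisiae TFs (full-length or DBD) made by in vitro transcription/translation (PURExpress), about 100-200 nM. Bound TF was detected with fluorescent anti-GST. Each ungapped 8-mer (which stands for itself and its reverse complement) is scored by the PBM enrichment score (E-score), a modified Wilcoxon-Mann-Whitney statistic from -0.5 to +0.5, computed with the Universal PBM Analysis Suite. Scale: above 0.35 generally sequence-specific binding.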"}
{"sequence": "CGGGGCAG", "PBM E-score": -0.0955}
{"sequence": "CCGACGAG", "PBM E-score": -0.119}
{"sequence": "CTTGAATC", "PBM E-score": -0.068}
{"sequence": "CTGGAGGA", "PBM E-score": -0.171}
{"sequence": "CACCCAAG", "PBM E-score": -0.25}
{"sequence": "GAGAACTA", "PBM E-score": 0.113}
{"sequence": "TCATAGCA", "PBM E-score": -0.0234}
{"sequence": "CAAGATCC", "PBM E-score": 0.149}
{"sequence": "TACCCCCA", "PBM E-score": -0.159}
{"sequence": "CGTGCTGA", "PBM E-score": 0.0341}
{"sequence": "AGCCTTAC", "PBM E-score": -0.296}
{"sequence": "AAACGACG", "PBM E-score": 0.0872}
{"sequence": "GCCGGGAA", "PBM E-score": -0.11}
{"sequence": "AACCTAGG", "PBM E-score": 0.0725}
{"sequence": "CCGAGGGC", "PBM E-score": 0.0206}
{"sequence": "GATCCTGA", "PBM E-score": 0.122}
{"sequence": "CAGCATCC", "PBM E-score": -0.053}
{"sequence": "GCGCCCAC", "PBM E-score": 0.131}
{"sequence": "AGAGGGCA", "PBM E-score": -0.00675}
{"sequence": "ACGAAACT", "PBM E-score": 0.0216}
{"sequence": "CGCAGCGC", "PBM E-score": -0.0643}
{"sequence": "ATATACGA", "PBM E-score": 0.00028}
{"sequence": "ATTCGTCC", "PBM E-score": 0.27}
{"sequence": "AAAGTGAG", "PBM E-score": 0.113}
{"sequence": "ACATGTCT", "PBM E-score": 0.00802}
{"sequence": "ATAGCGAC", "PBM E-score": 0.0025}
{"sequence": "AAGCAACG", "PBM E-score": 0.161}
{"sequence": "ATGACTGA", "PBM E-score": -0.0496}
{"sequence": "AACCTAGA", "PBM E-score": -0.0251}
{"sequence": "GAACCGCA", "PBM E-score": 0.104}
{"sequence": "AATGCTAC", "PBM E-score": 0.162}
{"sequence": "CTAGTGGA", "PBM E-score": -0.111}
{"sequence": "GTCTCTTA", "PBM E-score": 0.051}
{"sequence": "CGCATTCA", "PBM E-score": 0.0356}
{"sequence": "CCGTTCTA", "PBM E-score": 0.102}
{"sequence": "CCGCAACA", "PBM E-score": 0.187}
{"sequence": "CGCATCAG", "PBM E-score": 0.135}
{"sequence": "ATATCACC", "PBM E-score": 0.136}
{"sequence": "ACGGGTCG", "PBM E-score": 0.196}
{"sequence": "TGAAGGAA", "PBM E-score": 0.113}
{"sequence": "CGCGCCAA", "PBM E-score": 0.0388}
{"sequence": "ATTTAATG", "PBM E-score": 0.211}
{"sequence": "AGAGCCGC", "PBM E-score": 0.0823}
{"sequence": "ACGAAGCT", "PBM E-score": -0.0491}
{"sequence": "ATGTAGCC", "PBM E-score": -0.158}
{"sequence": "ACATTGGA", "PBM E-score": -0.202}
{"sequence": "CCGGTTAC", "PBM E-score": -0.175}
{"sequence": "CCGAGCCG", "PBM E-score": -0.0216}
{"sequence": "ATCAACCA", "PBM E-score": 0.0788}
{"sequence": "GGTCCTAC", "PBM E-score": 0.00056}
{"sequence": "ATGATCAA", "PBM E-score": 0.121}
{"sequence": "ATTGCCCG", "PBM E-score": -0.0391}
{"sequence": "ATTCTTGA", "PBM E-score": 0.162}
{"sequence": "TATTGAAA", "PBM E-score": 0.198}
{"sequence": "GCTGATCA", "PBM E-score": 0.0236}
{"sequence": "CATGGCAG", "PBM E-score": -0.00112}
{"sequence": "AGCGCTGA", "PBM E-score": 0.016}
{"sequence": "GATTCGTA", "PBM E-score": 0.137}
{"sequence": "CTGTCCTA", "PBM E-score": -0.0917}
{"sequence": "AACAACCC", "PBM E-score": 0.218}
{"sequence": "ATTCGTGC", "PBM E-score": 0.202}
{"sequence": "CATCGAAG", "PBM E-score": 0.0469}
{"sequence": "AATTCTGG", "PBM E-score": -0.0933}
{"sequence": "CGATTGCA", "PBM E-score": 0.0892}
{"sequence": "ACTCTAAG", "PBM E-score": -0.167}
{"sequence": "CCCCTTAG", "PBM E-score": -0.179}
{"sequence": "ACTAGTCG", "PBM E-score": -0.149}
{"sequence": "GATTCTTA", "PBM E-score": 0.0806}
{"sequence": "AATGTTGA", "PBM E-score": -0.019}
{"sequence": "TGATAGAA", "PBM E-score": -0.0926}
{"sequence": "AAAGGCTT", "PBM E-score": -0.0369}
{"sequence": "AAGTGCTG", "PBM E-score": -0.00141}
{"sequence": "AGGTCTAC", "PBM E-score": -0.143}
{"sequence": "CGCTATCC", "PBM E-score": 0.0398}
{"sequence": "GTATATTA", "PBM E-score": 0.107}
{"sequence": "ACTCATTC", "PBM E-score": 0.117}
{"sequence": "TCTCCAAA", "PBM E-score": 0.0619}
{"sequence": "GCACTCGA", "PBM E-score": -0.0456}
{"sequence": "CATAAGCG", "PBM E-score": -0.0101}
{"sequence": "ACCAGTTC", "PBM E-score": -0.0501}
{"sequence": "ACTTATTA", "PBM E-score": 0.0462}
{"sequence": "CCTTGGCG", "PBM E-score": 0.0251}
{"sequence": "CGAATAGA", "PBM E-score": -0.102}
{"sequence": "GAGCTTAA", "PBM E-score": -0.125}
{"sequence": "AGGAGTAA", "PBM E-score": 0.0539}
{"sequence": "CCGGTACG", "PBM E-score": -0.354}
{"sequence": "CTTCCACC", "PBM E-score": -0.229}
{"sequence": "AAGTTGGC", "PBM E-score": 0.0472}
{"sequence": "ATCAGGGA", "PBM E-score": 0.0565}
{"sequence": "GCTGTTCC", "PBM E-score": -0.182}
{"sequence": "ATGCTATG", "PBM E-score": 0.0909}
{"sequence": "CCGGAGAA", "PBM E-score": -0.0787}
{"sequence": "GTCCGTAA", "PBM E-score": -0.0758}
{"sequence": "ATCTAGTA", "PBM E-score": 0.167}
{"sequence": "GCCATCCA", "PBM E-score": -0.141}
{"sequence": "CGTGTGAC", "PBM E-score": -0.116}
{"sequence": "CCCACCCC", "PBM E-score": 0.177}
{"sequence": "AGCCTCTA", "PBM E-score": -0.28}
{"sequence": "CAGAGTGC", "PBM E-score": -0.0667}
{"sequence": "AGATATTC", "PBM E-score": 0.0342}
{"sequence": "AATAAACG", "PBM E-score": -0.00619}
{"sequence": "ACATCTTG", "PBM E-score": -0.124}
{"sequence": "AGGAGCAC", "PBM E-score": 0.0739}
{"sequence": "AGGCCAAG", "PBM E-score": -0.227}
{"sequence": "CATGTGTA", "PBM E-score": -0.0451}
{"sequence": "CGAATGCA", "PBM E-score": 0.123}
{"sequence": "AACAGGGA", "PBM E-score": 0.176}
{"sequence": "ACGGCCTC", "PBM E-score": 0.0332}
{"sequence": "ACTTGCTG", "PBM E-score": 0.0682}
{"sequence": "GGCATGCA", "PBM E-score": -0.113}
